Measured values from PubChem BioAssay AID336 (DTP/NCI, 2004).
The list shows only some results of the screen, not a fair sample: it gathers some chemical classes. Not every dose and run of a compound is shown. T/C is the treated group as % of the vehicle group. Where survival is the endpoint, the PubChem record calls one and a half times the control and up active, and a quarter to a half above the control has no call in these data; cut-offs in other NCI protocols can differ. Some T/C values are marked as having no survivor count here; that says nothing about deaths at the dose. Schedules are NCI's codes, taken here to give the interval after Q, in days (D) or hours (H), and the number of doses after X. Some doses were run more than once; the values are given in rising order.

Tested on: BDF1 mice, P388/VCR leukemia ip, median survival T/C
Experiment: NCI In Vivo Anticancer Drug Screen. Data for tumor model P388 Leukemia resistant to Vincristine; NSC 67574 (intraperitoneal) in B6D2F1 (BDF1) mice
Settings: T/C endpoint: median survival time, vehicle: saline, higher T/C = longer survival
Description: The antitumor activity of compounds was measured in mice bearing transplantable tumors. Survival or tumor size were measured and the results are expressed as the measurement made in the treated group (T) divided by the measurement made in the vehicle treated control group (C). The tumor model used in this assay is P388 Leukemia resistant to Vincristine; NSC 67574 (intraperitoneal) in B6D2F1 (BDF1) mice

CN(CCCl)CCCl
T/C (dose: 0.13 mg/kg/injection, schedule: Q01DX010 (ip)): 173 [survivor count not shown] and 178 % of control [survivor count not shown] | T/C (dose: 0.25 mg/kg/injection, schedule: Q01DX010 (ip)): 107 [survivor count not shown] and 230 % of control [survivor count not shown] | T/C (dose: 38.9 micrograms/kg/injection, schedule: Q04DX003 (ip)): 151 % of control [survivor count not shown] | T/C (dose: 648.0 micrograms/kg/injection, schedule: Q04DX003 (ip)): 194 % of control [survivor count not shown] | T/C (dose: 1080.0 micrograms/kg/injection, schedule: Q04DX003 (ip)): 124 % of control [survivor count not shown] | T/C (dose: 1800.0 micrograms/kg/injection, schedule: Q04DX003 (ip)): 124 % of control [survivor count not shown]
